Test results as given in the supplement of paper PMC11006884.
The entries are a selection whose mix differs from that of the whole data set.

Chains of the proteins cited; added tags and fusions are not shown. Lines headed by an entry give the natural chain unless they say otherwise; changes in a name come on top.
UniProt P84090, whole entry, looked up: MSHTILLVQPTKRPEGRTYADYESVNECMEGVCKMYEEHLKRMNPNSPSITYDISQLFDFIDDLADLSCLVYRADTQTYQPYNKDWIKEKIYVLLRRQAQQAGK
UniProt P78527, whole entry, looked up: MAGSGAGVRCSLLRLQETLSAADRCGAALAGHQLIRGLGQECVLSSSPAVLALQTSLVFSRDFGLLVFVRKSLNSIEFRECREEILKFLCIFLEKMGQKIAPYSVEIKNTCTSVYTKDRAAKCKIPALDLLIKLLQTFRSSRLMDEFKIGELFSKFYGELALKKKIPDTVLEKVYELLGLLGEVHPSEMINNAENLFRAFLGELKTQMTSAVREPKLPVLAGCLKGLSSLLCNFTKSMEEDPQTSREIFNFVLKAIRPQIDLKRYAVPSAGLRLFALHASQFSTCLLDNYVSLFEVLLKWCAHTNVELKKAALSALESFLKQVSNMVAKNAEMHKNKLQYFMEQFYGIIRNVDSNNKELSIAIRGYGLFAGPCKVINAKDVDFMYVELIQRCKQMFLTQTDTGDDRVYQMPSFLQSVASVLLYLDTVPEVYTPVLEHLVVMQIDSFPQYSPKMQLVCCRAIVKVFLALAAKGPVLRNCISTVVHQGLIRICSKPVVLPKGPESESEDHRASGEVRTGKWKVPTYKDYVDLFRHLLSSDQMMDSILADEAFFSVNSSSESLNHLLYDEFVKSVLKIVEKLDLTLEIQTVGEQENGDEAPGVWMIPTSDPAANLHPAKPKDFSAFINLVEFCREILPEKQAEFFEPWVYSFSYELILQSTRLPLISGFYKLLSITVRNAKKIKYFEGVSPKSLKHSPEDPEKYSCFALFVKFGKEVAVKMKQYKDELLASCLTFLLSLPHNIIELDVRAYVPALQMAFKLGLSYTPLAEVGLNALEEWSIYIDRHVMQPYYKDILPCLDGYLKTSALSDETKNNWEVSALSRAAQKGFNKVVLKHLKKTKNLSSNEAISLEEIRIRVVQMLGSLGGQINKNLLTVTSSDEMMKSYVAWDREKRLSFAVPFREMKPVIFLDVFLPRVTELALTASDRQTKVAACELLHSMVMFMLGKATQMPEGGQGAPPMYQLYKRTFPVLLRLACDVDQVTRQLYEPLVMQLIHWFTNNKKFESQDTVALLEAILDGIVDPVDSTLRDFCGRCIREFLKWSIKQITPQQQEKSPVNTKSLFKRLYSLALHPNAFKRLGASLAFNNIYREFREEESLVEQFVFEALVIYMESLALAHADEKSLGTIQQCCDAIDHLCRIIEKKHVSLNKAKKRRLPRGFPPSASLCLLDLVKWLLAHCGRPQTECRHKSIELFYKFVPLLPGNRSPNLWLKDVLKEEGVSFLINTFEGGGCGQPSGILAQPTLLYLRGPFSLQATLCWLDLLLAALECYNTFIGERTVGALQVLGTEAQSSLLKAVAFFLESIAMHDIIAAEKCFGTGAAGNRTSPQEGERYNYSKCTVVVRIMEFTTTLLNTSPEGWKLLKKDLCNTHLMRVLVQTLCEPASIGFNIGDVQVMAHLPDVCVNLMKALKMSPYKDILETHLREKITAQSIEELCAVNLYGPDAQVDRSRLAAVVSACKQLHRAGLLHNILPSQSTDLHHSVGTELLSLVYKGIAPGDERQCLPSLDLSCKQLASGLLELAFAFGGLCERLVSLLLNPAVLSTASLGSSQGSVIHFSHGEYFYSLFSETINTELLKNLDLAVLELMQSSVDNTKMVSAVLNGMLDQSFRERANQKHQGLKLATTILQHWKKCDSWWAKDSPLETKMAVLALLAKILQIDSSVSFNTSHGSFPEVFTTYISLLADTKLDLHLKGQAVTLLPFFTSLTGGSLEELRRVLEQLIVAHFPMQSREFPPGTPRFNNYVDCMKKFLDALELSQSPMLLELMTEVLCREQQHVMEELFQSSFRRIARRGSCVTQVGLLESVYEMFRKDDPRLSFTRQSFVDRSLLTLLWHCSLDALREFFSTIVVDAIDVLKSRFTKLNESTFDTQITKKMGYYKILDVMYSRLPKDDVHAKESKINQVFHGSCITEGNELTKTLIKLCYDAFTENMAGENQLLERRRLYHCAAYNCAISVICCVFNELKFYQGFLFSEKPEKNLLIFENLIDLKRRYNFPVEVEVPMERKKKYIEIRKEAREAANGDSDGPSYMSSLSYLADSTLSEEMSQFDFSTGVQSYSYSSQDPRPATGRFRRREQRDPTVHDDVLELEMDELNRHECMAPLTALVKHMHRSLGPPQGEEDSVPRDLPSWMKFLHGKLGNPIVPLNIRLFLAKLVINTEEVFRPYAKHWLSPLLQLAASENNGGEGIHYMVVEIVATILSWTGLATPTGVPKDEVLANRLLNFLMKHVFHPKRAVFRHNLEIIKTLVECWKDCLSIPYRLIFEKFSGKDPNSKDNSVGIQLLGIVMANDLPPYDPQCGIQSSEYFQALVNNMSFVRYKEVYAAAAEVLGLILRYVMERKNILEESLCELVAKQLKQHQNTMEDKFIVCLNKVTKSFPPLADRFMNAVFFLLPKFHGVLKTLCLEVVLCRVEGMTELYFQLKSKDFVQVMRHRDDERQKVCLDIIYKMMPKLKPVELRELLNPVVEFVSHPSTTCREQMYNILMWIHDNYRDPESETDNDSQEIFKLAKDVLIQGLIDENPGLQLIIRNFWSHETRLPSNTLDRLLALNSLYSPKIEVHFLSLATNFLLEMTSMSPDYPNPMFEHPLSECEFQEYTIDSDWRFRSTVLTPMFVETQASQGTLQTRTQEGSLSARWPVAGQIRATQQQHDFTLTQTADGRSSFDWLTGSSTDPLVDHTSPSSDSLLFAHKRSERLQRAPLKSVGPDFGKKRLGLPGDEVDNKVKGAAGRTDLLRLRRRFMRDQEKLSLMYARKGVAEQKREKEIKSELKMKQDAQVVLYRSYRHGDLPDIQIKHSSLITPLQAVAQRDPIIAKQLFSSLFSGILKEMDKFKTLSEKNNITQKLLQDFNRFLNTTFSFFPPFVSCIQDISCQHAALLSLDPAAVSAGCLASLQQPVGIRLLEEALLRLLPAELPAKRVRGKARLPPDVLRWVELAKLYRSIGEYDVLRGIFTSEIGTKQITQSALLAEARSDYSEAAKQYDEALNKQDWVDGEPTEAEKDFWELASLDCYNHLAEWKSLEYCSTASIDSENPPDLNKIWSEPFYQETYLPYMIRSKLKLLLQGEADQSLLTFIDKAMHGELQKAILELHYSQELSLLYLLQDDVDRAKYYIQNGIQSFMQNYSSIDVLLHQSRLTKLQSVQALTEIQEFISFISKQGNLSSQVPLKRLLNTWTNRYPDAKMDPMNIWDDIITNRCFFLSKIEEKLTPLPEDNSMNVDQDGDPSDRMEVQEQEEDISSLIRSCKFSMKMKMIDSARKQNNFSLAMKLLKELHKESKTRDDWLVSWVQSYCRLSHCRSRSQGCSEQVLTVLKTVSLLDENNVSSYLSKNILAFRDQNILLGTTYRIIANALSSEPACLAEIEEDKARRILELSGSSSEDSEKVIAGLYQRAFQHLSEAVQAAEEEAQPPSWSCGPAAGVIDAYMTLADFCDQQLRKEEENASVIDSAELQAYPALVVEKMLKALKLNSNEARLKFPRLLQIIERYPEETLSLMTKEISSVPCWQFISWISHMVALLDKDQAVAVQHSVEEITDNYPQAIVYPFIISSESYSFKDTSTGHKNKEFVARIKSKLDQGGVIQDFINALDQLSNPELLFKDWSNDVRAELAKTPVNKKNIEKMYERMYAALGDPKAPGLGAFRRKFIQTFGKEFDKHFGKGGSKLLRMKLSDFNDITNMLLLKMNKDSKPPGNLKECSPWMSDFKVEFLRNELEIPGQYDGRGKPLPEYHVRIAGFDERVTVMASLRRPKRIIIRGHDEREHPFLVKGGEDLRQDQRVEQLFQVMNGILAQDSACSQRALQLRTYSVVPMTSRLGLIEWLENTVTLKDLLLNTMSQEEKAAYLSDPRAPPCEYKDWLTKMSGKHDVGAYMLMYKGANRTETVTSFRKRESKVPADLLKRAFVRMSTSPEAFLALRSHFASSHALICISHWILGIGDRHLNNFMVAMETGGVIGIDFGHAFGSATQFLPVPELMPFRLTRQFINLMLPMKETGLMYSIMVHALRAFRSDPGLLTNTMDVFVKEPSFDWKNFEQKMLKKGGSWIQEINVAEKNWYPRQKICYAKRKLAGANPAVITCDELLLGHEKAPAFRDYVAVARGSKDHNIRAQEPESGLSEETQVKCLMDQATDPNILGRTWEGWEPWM
UniProt P62834: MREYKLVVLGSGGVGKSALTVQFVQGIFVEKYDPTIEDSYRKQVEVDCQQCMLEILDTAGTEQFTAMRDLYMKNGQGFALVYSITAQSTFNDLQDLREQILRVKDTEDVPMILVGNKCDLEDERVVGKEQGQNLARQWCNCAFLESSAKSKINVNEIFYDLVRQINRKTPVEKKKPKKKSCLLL
UniProt P84103: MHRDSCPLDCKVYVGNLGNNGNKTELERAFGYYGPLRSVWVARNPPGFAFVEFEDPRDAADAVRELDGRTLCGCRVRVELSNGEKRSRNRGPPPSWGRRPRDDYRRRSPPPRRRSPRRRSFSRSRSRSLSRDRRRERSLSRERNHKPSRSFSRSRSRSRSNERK
UniProt Q00796: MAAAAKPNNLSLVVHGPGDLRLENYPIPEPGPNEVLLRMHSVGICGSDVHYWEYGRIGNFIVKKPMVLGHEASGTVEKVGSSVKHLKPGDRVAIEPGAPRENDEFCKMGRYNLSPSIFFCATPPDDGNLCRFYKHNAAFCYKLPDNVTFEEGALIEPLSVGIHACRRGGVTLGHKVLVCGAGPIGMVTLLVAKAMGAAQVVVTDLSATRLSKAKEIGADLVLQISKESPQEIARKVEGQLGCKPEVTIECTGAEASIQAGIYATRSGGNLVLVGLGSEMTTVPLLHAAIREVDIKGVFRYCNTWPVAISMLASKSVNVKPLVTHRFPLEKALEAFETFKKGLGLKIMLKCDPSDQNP
UniProt Q01664: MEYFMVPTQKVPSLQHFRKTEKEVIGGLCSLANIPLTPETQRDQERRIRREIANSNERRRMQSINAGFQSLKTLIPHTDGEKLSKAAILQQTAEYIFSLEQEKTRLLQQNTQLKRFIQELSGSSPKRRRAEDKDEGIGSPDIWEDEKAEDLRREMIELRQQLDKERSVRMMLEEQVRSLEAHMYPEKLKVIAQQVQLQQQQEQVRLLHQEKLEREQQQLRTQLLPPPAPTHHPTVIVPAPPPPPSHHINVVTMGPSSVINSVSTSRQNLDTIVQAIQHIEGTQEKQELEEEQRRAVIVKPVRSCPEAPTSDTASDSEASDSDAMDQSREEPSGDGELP
UniProt P78417: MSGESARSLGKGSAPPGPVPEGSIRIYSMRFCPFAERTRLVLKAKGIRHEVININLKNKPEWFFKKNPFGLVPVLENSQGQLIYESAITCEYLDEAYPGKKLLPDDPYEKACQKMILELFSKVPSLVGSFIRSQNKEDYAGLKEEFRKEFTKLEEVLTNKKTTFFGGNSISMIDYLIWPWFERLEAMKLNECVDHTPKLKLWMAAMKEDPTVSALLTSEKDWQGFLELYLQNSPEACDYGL
UniProt P62633: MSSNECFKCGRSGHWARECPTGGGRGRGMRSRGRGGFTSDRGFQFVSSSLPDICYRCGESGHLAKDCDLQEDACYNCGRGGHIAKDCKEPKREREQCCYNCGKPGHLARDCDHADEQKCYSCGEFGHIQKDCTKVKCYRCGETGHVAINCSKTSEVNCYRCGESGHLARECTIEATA
UniProt P78344: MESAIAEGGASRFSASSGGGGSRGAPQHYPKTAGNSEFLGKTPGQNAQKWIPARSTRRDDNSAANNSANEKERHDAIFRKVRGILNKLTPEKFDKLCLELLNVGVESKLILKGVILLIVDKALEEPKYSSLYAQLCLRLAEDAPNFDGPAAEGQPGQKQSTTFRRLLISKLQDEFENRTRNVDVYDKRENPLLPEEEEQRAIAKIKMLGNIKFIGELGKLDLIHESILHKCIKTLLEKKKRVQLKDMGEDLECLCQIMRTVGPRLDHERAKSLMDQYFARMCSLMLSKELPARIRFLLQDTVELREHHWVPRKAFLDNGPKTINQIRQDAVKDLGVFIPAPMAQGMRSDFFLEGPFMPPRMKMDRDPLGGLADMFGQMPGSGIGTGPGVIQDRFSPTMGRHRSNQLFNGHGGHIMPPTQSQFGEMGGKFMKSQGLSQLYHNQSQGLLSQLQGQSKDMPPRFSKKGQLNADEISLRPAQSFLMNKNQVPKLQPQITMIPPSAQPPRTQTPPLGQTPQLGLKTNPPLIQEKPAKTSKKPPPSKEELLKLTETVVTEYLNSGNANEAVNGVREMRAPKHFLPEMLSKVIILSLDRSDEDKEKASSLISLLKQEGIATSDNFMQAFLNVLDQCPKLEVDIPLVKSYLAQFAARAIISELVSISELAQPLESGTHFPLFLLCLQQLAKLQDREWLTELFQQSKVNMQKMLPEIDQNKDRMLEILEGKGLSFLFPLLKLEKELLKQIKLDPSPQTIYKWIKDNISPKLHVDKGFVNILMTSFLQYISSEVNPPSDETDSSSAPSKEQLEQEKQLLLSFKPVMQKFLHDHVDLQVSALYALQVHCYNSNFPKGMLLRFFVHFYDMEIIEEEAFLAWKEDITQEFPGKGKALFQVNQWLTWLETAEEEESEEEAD

Compound: COC(=O)C#Cc1ccccc1 [methyl 3-phenylpropiolate]
Assay: log2 ratio of iodoacetamide-alkyne labeling of the cysteine site, DMSO over compound (competition); higher = stronger covalent engagement of the cysteine by the compound, active = 1 or more
Conditions: 500 µM; treatment time 1 h; system: HEK293T cell lysate
How it was run: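 Electrophile (500 µM) or vehicle was added to HEK293T lysate (2 mg/mL) for 1 h at ambient temperature before iodoacetamide alkyne labelling (1 h) and click coupling to sCIP-TMT reagents. After pooling, overnight trypsin digestion at 37 °C, streptavidin enrichment and acid elution, peptides were measured by Orbitrap Eclipse LC-MS/MS with FAIMS and quantified in FragPipe. Each cysteine's log2 competition ratio compares mean control-channel with mean compound-channel reporter intensity, control over compound. Data came from duplicate channels across three replicates, excluding cysteines quantified in only one replicate.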

Row | Target | log2 ratio of iodoacetamide-alkyne labeling
1 | UniProt P84090_C33 | inactive: -0.105
2 | UniProt P62888_C92 | inactive: 0.756
3 | UniProt P78527_C3683 | inactive: 0.491
4 | UniProt P62834_C141 | inactive: 0.00921
5 | UniProt P84103_C10 | inactive: -0.0111
6 | SORD C120 (UniProt Q00796) | inactive: 0.0439
7 | UniProt P78527_C1507 | inactive: 0.575
8 | CDK5 C157 (UniProt Q00535) | inactive: 0.141
9 | TFAP4 C29 (UniProt Q01664) | inactive: 0.367
10 | PLCB3 C892 (UniProt Q01970) | inactive: 0.797
11 | XIAP C12 (UniProt P98170) | inactive: 0.418
12 | GSTO1 C32 (UniProt P78417) | active: 2.51
13 | CNBP C158 (UniProt P62633) | inactive: 0.138
14 | RPL10A C164 (UniProt P62906) | inactive: -0.108
15 | SKP1 C160 (UniProt P63208) | inactive: 0.0891
16 | UniProt P62854_C74 | inactive: 0.434
17 | FOXK1 C439 (UniProt P85037) | inactive: 0.622
18 | CLTC C436 (UniProt Q00610) | inactive: 0.0569
19 | EIF4G2 C255 (UniProt P78344) | inactive: 0.391
20 | P86790_C358 (UniProt P86791+P86790) | inactive: 0.213
21 | UniProt P62913_C72 | inactive: -0.165
22 | KIF23 C933 (UniProt Q02241) | inactive: 0.634
23 | UniProt P78527_C3403 | inactive: 0.156

From entry 12 up to 13, as listed above:
Row | Target | log2 ratio of iodoacetamide-alkyne labeling
12 | GSTO1 C32 (UniProt P78417) | active: 2.51
13 | CNBP C158 (UniProt P62633) | inactive: 0.138
